Test results published in paper doi:10.1101/634915.
Positions count from the first letter of the chain named. No constants are given. Whether binding was seen depends on the method and setting. In cells and extracts the contact can be indirect. Some binding calls cover weakened binding; strength is not graded here. For some assays here: Tags and fused reporters may be left off the sequences shown.

Experiments:
Assay in all cases: FRET or BRET
RlucII-CLN3^L101P = target: T1, RlucII-CLN3^L101P (UniProt Q13286)
T1 sequence: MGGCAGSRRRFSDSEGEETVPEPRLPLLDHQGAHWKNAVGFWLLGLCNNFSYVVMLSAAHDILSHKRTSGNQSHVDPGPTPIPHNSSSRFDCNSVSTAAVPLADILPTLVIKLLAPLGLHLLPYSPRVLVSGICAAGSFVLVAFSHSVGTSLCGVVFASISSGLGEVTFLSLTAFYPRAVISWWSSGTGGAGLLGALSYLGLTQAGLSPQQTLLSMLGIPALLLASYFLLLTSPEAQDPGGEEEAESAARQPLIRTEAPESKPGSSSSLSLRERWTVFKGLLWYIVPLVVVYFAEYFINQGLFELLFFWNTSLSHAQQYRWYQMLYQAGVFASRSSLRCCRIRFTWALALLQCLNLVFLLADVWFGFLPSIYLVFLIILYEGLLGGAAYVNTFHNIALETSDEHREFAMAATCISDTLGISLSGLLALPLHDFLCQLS

RlucII-CLN3^E295K = target: T2, RlucII-CLN3^E295K (UniProt Q13286)
T2 sequence: T1 sequence with P101L, E295K

RlucII-CLN3^V330F = target: T3, RlucII-CLN3^V330F (UniProt Q13286)
T3 sequence: T1 sequence with P101L, V330F

Vps26A-nLuc = Vps26A-nLuc (UniProt O75436)
RlucII-CLN3 = target: T4, RlucII-CLN3 (UniProt Q13286)
T4 sequence: T1 sequence with P101L

RlucII-CLN3^R334H = target: T5, RlucII-CLN3^R334H (UniProt Q13286)
T5 sequence: T1 sequence with P101L, R334H

Row | binding (RlucII-CLN3^L101P) | binding (RlucII-CLN3^E295K) | binding (RlucII-CLN3^V330F) | binding (Vps26A-nLuc) | binding (RlucII-CLN3) | binding (RlucII-CLN3^R334H) | Substance
1 | binds | binds | binds | binds | binds | binds | sortilin-YFP (from UniProt Q99523 78-831) (receptor)
2 | binds | binds | binds | – | binds | binds | Vps26A-GFP10 (from UniProt O75436 1-327)
